# Measurements from PubChem BioAssay AID2685 (National Center for Advancing Translational Sciences (NCATS), 2010).
# This is one part of the list. These are further read-outs of the screen, such as a control signal, another cell line or another target. No call is given for them. The list favours compounds with an active or inconclusive main result. The note in brackets gives the kind of curve behind each potency; many fits are weak.
# Experiment: qHTS Assay for Lipid Storage Modulators in Drosophila S3 Cells;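 on cell number change: cells counted by Cell Tracker Red CMTPX staining in the red channel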
# Conditions: BODIPY lipid droplet fluorescence, 18-24 h; for cell number change: measured here: cell count max response, cells fed with added oleic acid
# Method in brief: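 Laser-scanning cytometry quantifies lipid droplet accumulation (500–530 nm total intensity; droplet/cell object ratio) in oleic acid-fed (400 uM added) Drosophila S3 cells treated with a concentration series. 20 uM Triacsin C defined 100% inhibition.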
# [1] = measured here: lipid fluorescence (Fed channel) AC50, cells fed with added oleic acid
# [2] = measured here: cell number channel AC50, cells fed with added oleic acid
Structure (SMILES),cell number change [%],AC50 [1],AC50 [2]
O=C(Nc1nccs1)c1ccc(-c2ccc([N+](=O)[O-])cc2)o1,7.22,,
O=C(CCn1cnc2ccccc21)N=Nc1c(O)[nH]c2ccccc12,3.98,"1.84 µM [rising, partial curve]",
CCCN(CCC)CC(=O)Nc1cccc2c1OCO2,30.4,,"0.184 µM [rising, full curve, poor fit]"
CCOC(=O)N1CCN(C(=O)CN(c2cccc(C)c2)S(=O)(=O)c2ccccc2)CC1,4.17,"0.0517 µM [rising, full curve]",
O=C(Nc1ccc(Br)cc1)c1ccc(F)c(S(=O)(=O)NCc2cccs2)c1,-13.8,,
NC(=O)CCC(C(=O)O)N1C(=O)c2ccc(O)cc2C1=O (centres undefined),-41.4,"32.6 µM [falling, partial curve, poor fit]","7.31 µM [falling, full curve, poor fit]"
CCOc1ccccc1Oc1c(C)oc2cc(OC(=O)N3CCOCC3)ccc2c1=O,-12.5,,
O=C(Nc1ccc(OCc2ccccc2Cl)cc1)c1cccnc1,-24.5,"0.731 µM [rising, full curve]",
O=C1CC(N2CCC(c3nc4ccccc4[nH]3)CC2)C(=O)N1Cc1ccccc1 (centres undefined),-27.7,"0.231 µM [falling, full curve]","0.517 µM [falling, full curve, poor fit]"
CCOc1cc(Br)ccc1S(=O)(=O)NCc1ccccc1,0.269,"13 µM [falling, partial curve]","5.17 µM [falling, single point]"
O=C(CSc1nnc(-c2ccccn2)o1)Nc1ccccc1C(F)(F)F,-16.2,,
Cc1ccc(S(=O)(=O)NC(N)=NCCc2ccc(Cl)cc2)cc1C,-50,,"23.1 µM [falling, single point]"
O=C(CCl)Nc1cccc(S(=O)(=O)N2CCCCCC2)c1,-41,"20.6 µM [falling, partial curve]","20.6 µM [falling, single point]"
CCCCn1c(N)c(N(CC(C)C)C(=O)C2CC(=O)N(c3ccc(C)cc3)C2)c(=O)[nH]c1=O (centres undefined),3.1,,
Cc1csc(CN(C)C(=O)CC2C(=O)NCCN2Cc2ccc(F)cc2Cl)n1 (centres undefined),-10.2,"0.58 µM [rising, single point]",
Cc1ccccc1Cn1c(CN2CCN(C(=O)c3ccco3)CC2)nc2c1c(=O)n(C)c(=O)n2C,38.8,"18.4 µM [rising, partial curve]","23.1 µM [rising, single point]"
COc1ccc(C=O)cc1C1=CC(=O)C[C@H](c2ccc(Cl)cc2)C1,1.6,,"4.61 µM [falling, single point]"
O=C(O)c1ccc(-n2nncc2-c2ccccc2)cc1,16.1,"3.66 µM [falling, full curve, poor fit]",
CC(C)C[C@H](NC(=O)N1CCn2c1nc1ccccc12)C(=O)N[C@@H](C(=O)O)c1ccccc1,8.09,,
COC(=O)CNc1c(-c2ccccc2)nc2ccc(Br)cn12,-12.3,,

# Another view of part of the listing above.
Structure (SMILES)	cell number change [%]	AC50 [1]	AC50 [2]
O=C(CCn1cnc2ccccc21)N=Nc1c(O)[nH]c2ccccc12	3.98	1.84 µM [rising, partial curve]	
NC(=O)CCC(C(=O)O)N1C(=O)c2ccc(O)cc2C1=O (centres undefined)	-41.4	32.6 µM [falling, partial curve, poor fit]	7.31 µM [falling, full curve, poor fit]
CCOc1ccccc1Oc1c(C)oc2cc(OC(=O)N3CCOCC3)ccc2c1=O	-12.5		
CCOc1cc(Br)ccc1S(=O)(=O)NCc1ccccc1	0.269	13 µM [falling, partial curve]	5.17 µM [falling, single point]
Cc1ccc(S(=O)(=O)NC(N)=NCCc2ccc(Cl)cc2)cc1C	-50		23.1 µM [falling, single point]
CCCCn1c(N)c(N(CC(C)C)C(=O)C2CC(=O)N(c3ccc(C)cc3)C2)c(=O)[nH]c1=O (centres undefined)	3.1		
Cc1csc(CN(C)C(=O)CC2C(=O)NCCN2Cc2ccc(F)cc2Cl)n1 (centres undefined)	-10.2	0.58 µM [rising, single point]	
O=C(O)c1ccc(-n2nncc2-c2ccccc2)cc1	16.1	3.66 µM [falling, full curve, poor fit]	

# Going on with the list:

Structure (SMILES),cell number change [%],AC50 [1],AC50 [2]
Cn1cnc2c1c(=O)n(Cc1ccc(Cl)cc1Cl)c(=O)n2C,6.16,"0.116 µM [falling, partial curve, poor fit]",
COC(=O)c1ccc(C(=O)OC)c(NC(=S)N2CCCC(CO)C2)c1 (centres undefined),42.4,"29.1 µM [rising, single point]",
CC(C)(C)c1ccc(C(=O)OCCNC(=O)c2c(Cl)nc3ccccn23)cc1,0.804,,"2.59 µM [rising, partial curve]"
CN(CCc1nc2ccccc2[nH]1)Cc1nc(CC2CC2)no1,-32.5,"0.326 µM [falling, full curve]","0.92 µM [falling, full curve, poor fit]"
CCCCn1c(-c2ccccc2C)nc2cc3[nH]c(=O)c(C(C)C)nc3cc21,-30.8,,"29.1 µM [falling, single point]"
CC1CCN(c2nc3ccccc3n2CC(=O)c2ccccc2)CC1,,"4.11 µM [rising, partial curve]",
CCC1(CC)NC(=O)N(CC(=O)N2N=C(c3ccc(Cl)cc3)CC2c2ccco2)C1=O (centres undefined),4.21,,
CCOC(=O)C1CCN(S(=O)(=O)c2c(C(=O)N3CCCCC3)c(C)n(C)c2C)CC1,-15.3,"29.1 µM [rising, single point]",
Cc1cc(=O)n2[nH]c(SCc3ccccc3Cl)nc2n1,,"6.51 µM [rising, single point]",
COc1c(Cl)cccc1-c1cn2ccc(C)cc2n1,12,"0.0291 µM [rising, full curve, poor fit]",
COc1ccc2[nH]c(C(=O)O)c(NS(=O)(=O)c3ccc(Cl)s3)c2c1,2.83,,"0.517 µM [falling, single point]"
O=C(COc1ccc2c3c(c(=O)oc2c1)CCCC3)NCc1ccncc1,26.5,"10.3 µM [rising, partial curve]","6.51 µM [rising, single point]"
CCN(CC(=O)Nc1ccccc1C(F)(F)F)C(=O)c1cc(S(=O)(=O)N(C)C)ccc1N1CCCC1,1.84,,
Cc1cc(C)n2c(SCc3ccc(Br)cc3)nnc2n1,-6.78,,
O=C(O)c1ccc(NS(=O)(=O)c2cc(Cl)ccc2Cl)cc1O,-38,"16.4 µM [falling, partial curve]","0.103 µM [falling, full curve, poor fit]"
CCOCC(=O)NCc1ccc2c(c1)cc(C)n2C,1.44,,
O=c1c2c3c(sc2n2cnnc2n1-c1ccccc1)N(Cc1ccccc1)CCC3,-5.98,,
COC(=O)C1=C(CS(=O)(=O)c2ccccc2)NC(=O)NC1c1ccc(OC)c(OC)c1 (centres undefined),4.48,"29.1 µM [rising, single point]",
O=C(c1ccc(N2C(=O)C3C4c5ccccc5C(c5ccccc54)C3C2=O)cc1)N1CCOCC1 (centres undefined),-20,"0.0058 µM [falling, full curve, poor fit]",
Cc1ccc(OC(C)C(=O)Nc2ccncc2)cc1 (centres undefined),2.07,"29.1 µM [falling, single point]",
